According to PubChem BioAssay AID540303 (National Center for Advancing Translational Sciences (NCATS), 2011):
In all, about 330,000 compounds went through this assay and about 1,000 (0.3%) were called active. This list was built around the results that the source calls inconclusive (neither active nor inactive); the mix of calls is not that of the screen. The call rests on the fitted dose curve; in most records, active means well fitted inhibition curve with a large enough effect; inconclusive means small, poorly fitted or top-dose-only effect; inactive means no such curve, though single readings can be large or run the other way; tested in mouse RAW 264.7 cells. Potencies of inconclusive entries are doubtful fits and often do not repeat.

Experiment: qHTS for Inhibitors of Cell Surface uPA Generation; further: nearly all actives have a fitted effect of over 55% in size
Conditions: cell surface uPA generation assay; series mostly up to 38.3 µM
Summary of the method: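 ATP-Lite luminescence in RAW 264.7 cells after 24 h of exposure to compound, tested up to 38.3 uM final in 1:5 steps. Raised ATP reflects inhibition of uPA-dependent LF delivery to the cytoplasm.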
Potency means the concentration at half of the fitted maximal effect.

Row | SMILES | Potency
1 | Cc1noc(C)c1COc1ccccc1C(=O)N1CCN(c2cccc(C(F)(F)F)c2)CC1 | inconclusive: 3.98 µM [inhibitor, partial curve, poor fit]
2 | COc1cccc(CN2C(=O)[C@H]3Cc4c([nH]c5ccccc45)C(C)(C)N3C2=O)c1 | inconclusive: 12.6 µM [inhibitor, single point]
3 | CCc1nnc(N/N=C/c2c(F)cccc2Cl)n1N | inconclusive: 28.2 µM [inhibitor, single point]
4 | CCOc1ccc(CCNC(=O)c2nnc(CS(=O)(=O)c3ccccc3)o2)cc1OCC | inactive
5 | O=C(Nc1ccccc1N1CCCCC1)c1ccc(-c2ccc(Cl)cc2)o1 | inactive
6 | COc1ccc(CNc2nc3ccccc3n2CCN2CCCCC2)c(OC)c1 | inactive
7 | CN1CCN(C(=O)CCN2C(=O)/C(=C\c3ccc(Cl)cc3)SC2=S)CC1 | inconclusive: 0.708 µM [inhibitor, partial curve, poor fit]
8 | Cc1cc(N2CCCCC2)n2nc(C)c(-c3ccccc3)c2n1 | inactive
9 | Cc1ccccc1CNC(=O)Nc1cccs1 | inactive
10 | COC(=O)CCN(Cc1ccccc1)S(=O)(=O)c1ccccc1Br | inconclusive: 12.6 µM [inhibitor, partial curve, poor fit]
11 | Cc1ccc2[nH]c(-c3ccccc3)cc(=O)c2c1 | inconclusive: 0.0708 µM [inhibitor, full curve, poor fit]
12 | CCN1C(=O)C(CC(=O)Nc2ccc(OC)cc2)N(CCCN2CCN(c3ccc(F)cc3)CC2)C1=S (configuration not stated) | inactive
13 | CCN1C(=O)CSC1=Nc1ccc(OC)cc1 | inactive
14 | Cc1cc(-n2cnnn2)cc(C)c1S(=O)(=O)NCCOc1ccccc1 | inactive
15 | Cc1nc2c(sc3nc(N4CCOCC4)c4c(c32)CC(C)(C)OC4)c(-c2ccc(Cl)cc2)c1C(=O)O | inconclusive: 10 µM [inhibitor, partial curve, poor fit]
16 | COc1ccc([C@H]2CC(=O)C=C(c3ccnc4ccc(Cl)cc34)C2)cc1 | inconclusive: 7.08 µM [inhibitor, single point]
17 | CCCCCCN1C=CC(=C2C(=O)c3ccccc3C2=O)C=C1 | inconclusive: 0.501 µM [inhibitor, full curve, poor fit]
18 | Nc1ncnc2c1nc(Br)n2[C@@H]1O[C@@H]2COP(=O)(O)O[C@H]2[C@H]1O | inconclusive: 11.2 µM [inhibitor, single point]
19 | COc1ccccc1C(NC(=O)CC(C)C)c1c(O)ccc2ccccc12 (configuration not stated) | inactive
20 | O=C(NCC1CCCCC1)c1cccc(S(=O)(=O)N2CCCC2)c1 | inconclusive: 5.62 µM [inhibitor, partial curve, poor fit]
21 | COc1ccc(CCOC(=O)c2cccc(NC(C)=O)c2)cc1 | inactive

Molecules above that have fluorine (3):
Row | SMILES | Potency
1 | Cc1noc(C)c1COc1ccccc1C(=O)N1CCN(c2cccc(C(F)(F)F)c2)CC1 | inconclusive: 3.98 µM [inhibitor, partial curve, poor fit]
3 | CCc1nnc(N/N=C/c2c(F)cccc2Cl)n1N | inconclusive: 28.2 µM [inhibitor, single point]
12 | CCN1C(=O)C(CC(=O)Nc2ccc(OC)cc2)N(CCCN2CCN(c3ccc(F)cc3)CC2)C1=S (configuration not stated) | inactive

Additional records follow.

Row | SMILES | Potency
22 | CCOc1cccc(/C=N/NC(=O)c2cc(C3CC3)[nH]n2)c1O | inconclusive: 7.94 µM [inhibitor, partial curve, poor fit]
23 | Oc1ccccc1C1CC(c2cccs2)=NC(c2ccc(Cl)cc2)N1 (configuration not stated) | inconclusive: 12.6 µM [inhibitor, single point]
24 | O=c1c2[nH]cnc2n(-c2cccc(F)c2)c(=O)n1Cc1ccccc1 | inconclusive: 2.24 µM [inhibitor, partial curve, poor fit]
25 | Cc1cc2c(cc(C(=O)OCC(=O)NCc3cccs3)n2C(C)C)o1 | inconclusive: 0.447 µM [inhibitor, full curve, poor fit]
26 | CC(=O)N1c2ccc(S(=O)(=O)NCCC(=O)Nc3cccc(Cl)c3)cc2CC1C (configuration not stated) | inactive
27 | COc1ccc(OCc2cc(C(=O)N(Cc3nccn3C)C(C)C)no2)c2ccccc12 | inconclusive: 10 µM [inhibitor, single point]
28 | CC1CCC(C(C)C)C(OC(=O)Cn2c(-c3ccc(Cl)cc3)[n+](C)c3ccccc32)C1 (configuration not stated) | inconclusive: 22.4 µM [inhibitor, single point]
29 | O=C(COC(=O)c1ccc(F)cc1Cl)Nc1cccc(S(=O)(=O)N2CCOCC2)c1 | inconclusive: 0.0079 µM [inhibitor, full curve, poor fit]
30 | CC1CCN(c2ccccc2NC(=O)c2cc([N+](=O)[O-])ccc2N2CCOCC2)CC1 | inconclusive: 10 µM [inhibitor, single point]
31 | Cc1cc(C)c(Cn2c3ccccc3c3cnn(CC(=O)NCCN4CCOCC4)c(=O)c32)c(C)c1 | inconclusive: 12.6 µM [inhibitor, partial curve, poor fit]
32 | CCOc1cc(C(=O)NN=C2CCCC2)cc(OCC)c1OCC | inconclusive: 10 µM [inhibitor, single point]
33 | CCN(CC)c1ccc(/C=C(/C#N)c2nc3ccccc3[nH]2)c(OC(C)C)c1 | active: 10 µM
34 | CCN(CC)CCNC(=O)c1nn(-c2ccc(Cl)cc2)c2c1CCc1cc(OC)ccc1-2 | inactive
35 | COc1ccc(S(=O)(=O)Nc2cccc(-c3ccc4nncn4n3)c2)cc1F | active: 2.82 µM
36 | CC(C)NS(=O)(=O)c1cc(F)ccc1CN1C(=O)c2cccnc2C1=O | inactive
37 | Cc1ccccc1C(=O)N1CCC(C(=O)N(CC(C)C)c2c(N)n(CC(C)C)c(=O)[nH]c2=O)CC1 | inconclusive: 5.01 µM [inhibitor, single point]
38 | CCOC(=O)[C@H]1[C@H]2COc3ccc(C)cc3[C@@H]2N2C(=O)c3ccc(Cl)cc3NC(=O)[C@@]12C | inconclusive: 12.6 µM [inhibitor, single point]
39 | Cc1cccc2c1N(CCCOc1ccc(C(C)(C)C)cc1)C(=O)C2=O | inconclusive: 12.6 µM [inhibitor, single point]
40 | CN1/C(=C/c2cc[n+](C)c3ccccc23)C=Cc2ccccc21 | inconclusive: 2.24 µM [inhibitor, partial curve, poor fit]
41 | O=C1NC[C@H](Cc2ccccc2)N(C[C@H]2CCCN2C[C@H](Cc2ccccc2)N2C[C@H](Cc3ccccc3)N(CC3CCCCC3)C(=O)C2=O)C1=O | inconclusive: 12.6 µM [inhibitor, single point]
42 | O=C(N/N=C/c1ccc(O)cc1)c1[nH]c2ccc(Br)cc2c1-c1ccccc1 | inconclusive: 0.0126 µM [inhibitor, full curve, poor fit]
